The supplement of paper PMC10338343
± gives the standard deviation. Only a part is listed here, and it is no random draw. The uncertainty is large for many entries.

How the values were obtained:
[1] = system: MILI (PIWIL2) piRISC loaded with piRNA #1 (26 nt); assay: pre-steady-state target cleavage rate (min^-1); higher = faster piRNA-guided slicing of the target; details: guide: piRNA #1 5'p-UGAGGUAGUAGGUUGUAUAGUAUCCA; auxiliary factor: 500 nM mouse GTSF1
Outline: (§1)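 Cleave-'n-Seq reactions paired 0.1 nM transcribed, DNA-blocked target RNA library with 1 nM active affinity-purified piRISC holding one synthetic guide, plus or minus 500 nM GTSF1 partner protein, in HEPES–potassium acetate buffer at 33 °C for 0–8 or 0–960 min. After sequencing of uncleaved targets and normalisation to depth and weakly complementary targets, the pre-steady-state cleavage rate was taken from a burst-and-steady-state fit. Three trials were pooled, and k3 was capped at 0.0001 min^-1.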

[2] = system: MIWI (PIWIL1) piRISC loaded with piRNA #1 (30 nt); assay: as above; details: guide: piRNA #1 5'p-UGAGGUAGUAGGUUGUAUAGUAUCCAGAGG; auxiliary factor: 500 nM mouse GTSF1
Outline: as §1

[3] = system: EfPiwi piRISC loaded with piRNA #1 (26 nt); assay: pre-steady-state target cleavage rate (min^-1); guide: piRNA #1 5'p-UGAGGUAGUAGGUUGUAUAGUAUCCA; MIWI and MILI are mouse PIWI proteins and EfPiwi is from a freshwater sponge; tags in brackets are library labels; higher = faster piRNA-guided slicing of the target; details: auxiliary factor: 500 nM Ephydatia muelleri Gtsf1
Outline: as §1

GGAGUGGAUACUAUACAACCCUACUACCUCA
pre-steady-state target cleavage rate [1]: 0.00153 ± 0.0044
pre-steady-state target cleavage rate [2]: 0.000176 ± 0.021
pre-steady-state target cleavage rate [3]: 0.00375 ± 0.0023

GGAGACCUAUGAUAUCAACCUACUAGCUCA
pre-steady-state target cleavage rate [1]: 0.0019 ± 0.0031
pre-steady-state target cleavage rate [2]: 0.000135 ± 0.014
pre-steady-state target cleavage rate [3]: 0.000706 ± 0.0087

GGAGACCUAUGAUAACAACGCUACUACCUCA
pre-steady-state target cleavage rate [1]: 0.000517 ± 0.01
pre-steady-state target cleavage rate [2]: 0.000142 ± 0.018
pre-steady-state target cleavage rate [3]: 0.000972 ± 0.0088
